{"source": "PubChem BioAssay AID1259323 (Peter MacCallum Cancer Centre, 2017)", "screen": "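Kinase siRNA screen linking the PAR2 receptor to the TRPV4 channel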 (primary screen)", "cell system": "human HEK293 cells stably carrying inducible TRPV4", "reagents": "siRNA pool against human genes", "treatment": "PAR2 activation; agonist identity and dose not given", "read-out": "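Real-time Fura-2 calcium after PAR2 activation; early peak and later plateau each as % of mock-transfected wells on the plate, mean of two plates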", "reading the numbers": "TRPV4 plateau calcium, % of mock: higher = stronger sustained TRPV4 calcium entry than mock; PAR2 peak calcium, % of mock: higher = stronger early PAR2 calcium response than mock", "active means": "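Active if plateau calcium is under 90% of mock and early peak calcium stays over 79% of mock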", "note": "This is a random part of 715 deposited reagents. 91 of all reagents (13%) count as active. 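Active pools lower the sustained TRPV4 phase but spare the early PAR2 peak; PAR2 agonist and dose are not stated; pools repeat across wells.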 Entries without a mark were called inactive. Reagent sequences are not shown. The record does not give: the amount of reagent, the time to read-out."}
{"Gene": "MST1R (GeneID 4486)", "TRPV4 plateau calcium, % of mock": 101, "PAR2 peak calcium, % of mock": 99.6}
{"Gene": "MAST3 (GeneID 23031)", "TRPV4 plateau calcium, % of mock": 101, "PAR2 peak calcium, % of mock": 104}
{"Gene": "LIMK1 (GeneID 3984)", "TRPV4 plateau calcium, % of mock": 94.1, "PAR2 peak calcium, % of mock": 92.3}
{"Gene": "PAK1 (GeneID 5058)", "TRPV4 plateau calcium, % of mock": 99.8, "PAR2 peak calcium, % of mock": 94.5}
{"Gene": "HUS1 (GeneID 3364)", "TRPV4 plateau calcium, % of mock": 95.9, "PAR2 peak calcium, % of mock": 99.3}
{"Gene": "BMX (GeneID 660)", "TRPV4 plateau calcium, % of mock": 103, "PAR2 peak calcium, % of mock": 103}
{"Gene": "MPP1 (GeneID 4354)", "TRPV4 plateau calcium, % of mock": 100, "PAR2 peak calcium, % of mock": 93.9}
{"Gene": "CDK20 (GeneID 23552)", "TRPV4 plateau calcium, % of mock": 102, "PAR2 peak calcium, % of mock": 98.7}
{"Gene": "AMHR2 (GeneID 269)", "TRPV4 plateau calcium, % of mock": "89.2 (active)", "PAR2 peak calcium, % of mock": 96.4}
{"Gene": "STRADA (GeneID 92335)", "TRPV4 plateau calcium, % of mock": "86.7 (active)", "PAR2 peak calcium, % of mock": 93.8}
{"Gene": "CDKN2D (GeneID 1032)", "TRPV4 plateau calcium, % of mock": 109, "PAR2 peak calcium, % of mock": 103}
{"Gene": "BUB1B (GeneID 701)", "TRPV4 plateau calcium, % of mock": 98.3, "PAR2 peak calcium, % of mock": 103}
{"Gene": "RPS6KA5 (GeneID 9252)", "TRPV4 plateau calcium, % of mock": 96.2, "PAR2 peak calcium, % of mock": 100}
{"Gene": "FRK (GeneID 2444)", "TRPV4 plateau calcium, % of mock": 93.1, "PAR2 peak calcium, % of mock": 97.9}
{"Gene": "PIK3R2 (GeneID 5296)", "TRPV4 plateau calcium, % of mock": 99.3, "PAR2 peak calcium, % of mock": 95.2}
{"Gene": "TNIK (GeneID 23043)", "TRPV4 plateau calcium, % of mock": 119, "PAR2 peak calcium, % of mock": 105}
{"Gene": "NEK1 (GeneID 4750)", "TRPV4 plateau calcium, % of mock": 91.3, "PAR2 peak calcium, % of mock": 93.7}
{"Gene": "ADPGK (GeneID 83440)", "TRPV4 plateau calcium, % of mock": 102, "PAR2 peak calcium, % of mock": 104}
{"Gene": "ERN1 (GeneID 2081)", "TRPV4 plateau calcium, % of mock": 101, "PAR2 peak calcium, % of mock": 98.9}
{"Gene": "GAK (GeneID 2580)", "TRPV4 plateau calcium, % of mock": 106, "PAR2 peak calcium, % of mock": 102}
{"Gene": "ITPKC (GeneID 80271)", "TRPV4 plateau calcium, % of mock": 91.7, "PAR2 peak calcium, % of mock": 88.2}
{"Gene": "KALRN (GeneID 8997)", "TRPV4 plateau calcium, % of mock": "87.6 (active)", "PAR2 peak calcium, % of mock": 97.1}
{"Gene": "CDK6 (GeneID 1021)", "TRPV4 plateau calcium, % of mock": 98.1, "PAR2 peak calcium, % of mock": 92.3}
{"Gene": "FGFR4 (GeneID 2264)", "TRPV4 plateau calcium, % of mock": "81.9 (active)", "PAR2 peak calcium, % of mock": 93.9}
{"Gene": "MAP2K1 (GeneID 5604)", "TRPV4 plateau calcium, % of mock": 98, "PAR2 peak calcium, % of mock": 96.9}

Next part, starting with the last 4 of the part before.
{"Gene": "KALRN (GeneID 8997)", "TRPV4 plateau calcium, % of mock": "87.6 (active)", "PAR2 peak calcium, % of mock": 97.1}
{"Gene": "CDK6 (GeneID 1021)", "TRPV4 plateau calcium, % of mock": 98.1, "PAR2 peak calcium, % of mock": 92.3}
{"Gene": "FGFR4 (GeneID 2264)", "TRPV4 plateau calcium, % of mock": "81.9 (active)", "PAR2 peak calcium, % of mock": 93.9}
{"Gene": "MAP2K1 (GeneID 5604)", "TRPV4 plateau calcium, % of mock": 98, "PAR2 peak calcium, % of mock": 96.9}
{"Gene": "STK10 (GeneID 6793)", "TRPV4 plateau calcium, % of mock": "87.9 (active)", "PAR2 peak calcium, % of mock": 89.4}
{"Gene": "MAP4K2 (GeneID 5871)", "TRPV4 plateau calcium, % of mock": 107, "PAR2 peak calcium, % of mock": 103}
{"Gene": "PANK3 (GeneID 79646)", "TRPV4 plateau calcium, % of mock": 104, "PAR2 peak calcium, % of mock": 102}
{"Gene": "CAMK1G (GeneID 57172)", "TRPV4 plateau calcium, % of mock": 95.9, "PAR2 peak calcium, % of mock": 90.6}
{"Gene": "STK17A (GeneID 9263)", "TRPV4 plateau calcium, % of mock": "83.6 (active)", "PAR2 peak calcium, % of mock": 85.2}
{"Gene": "FGR (GeneID 2268)", "TRPV4 plateau calcium, % of mock": 124, "PAR2 peak calcium, % of mock": 111}
{"Gene": "WNK4 (GeneID 65266)", "TRPV4 plateau calcium, % of mock": "85.9 (active)", "PAR2 peak calcium, % of mock": 99.5}
{"Gene": "NEK9 (GeneID 91754)", "TRPV4 plateau calcium, % of mock": 106, "PAR2 peak calcium, % of mock": 98.2}
{"Gene": "TPK1 (GeneID 27010)", "TRPV4 plateau calcium, % of mock": 107, "PAR2 peak calcium, % of mock": 103}
{"Gene": "CDKL2 (GeneID 8999)", "TRPV4 plateau calcium, % of mock": 115, "PAR2 peak calcium, % of mock": 105}
{"Gene": "MAP3K14 (GeneID 9020)", "TRPV4 plateau calcium, % of mock": 93.9, "PAR2 peak calcium, % of mock": 93.4}
{"Gene": "PRKCG (GeneID 5582)", "TRPV4 plateau calcium, % of mock": 101, "PAR2 peak calcium, % of mock": 105}
{"Gene": "DLG3 (GeneID 1741)", "TRPV4 plateau calcium, % of mock": 97.4, "PAR2 peak calcium, % of mock": 93.6}
{"Gene": "MET (GeneID 4233)", "TRPV4 plateau calcium, % of mock": 103, "PAR2 peak calcium, % of mock": 99.7}
{"Gene": "PHKG2 (GeneID 5261)", "TRPV4 plateau calcium, % of mock": 120, "PAR2 peak calcium, % of mock": 104}
